## Percent effect of library compounds

Amino acid sequences for entries named in this document (tags omitted). Residues count along the entry.
UniProt Q8IDJ8, 1-583: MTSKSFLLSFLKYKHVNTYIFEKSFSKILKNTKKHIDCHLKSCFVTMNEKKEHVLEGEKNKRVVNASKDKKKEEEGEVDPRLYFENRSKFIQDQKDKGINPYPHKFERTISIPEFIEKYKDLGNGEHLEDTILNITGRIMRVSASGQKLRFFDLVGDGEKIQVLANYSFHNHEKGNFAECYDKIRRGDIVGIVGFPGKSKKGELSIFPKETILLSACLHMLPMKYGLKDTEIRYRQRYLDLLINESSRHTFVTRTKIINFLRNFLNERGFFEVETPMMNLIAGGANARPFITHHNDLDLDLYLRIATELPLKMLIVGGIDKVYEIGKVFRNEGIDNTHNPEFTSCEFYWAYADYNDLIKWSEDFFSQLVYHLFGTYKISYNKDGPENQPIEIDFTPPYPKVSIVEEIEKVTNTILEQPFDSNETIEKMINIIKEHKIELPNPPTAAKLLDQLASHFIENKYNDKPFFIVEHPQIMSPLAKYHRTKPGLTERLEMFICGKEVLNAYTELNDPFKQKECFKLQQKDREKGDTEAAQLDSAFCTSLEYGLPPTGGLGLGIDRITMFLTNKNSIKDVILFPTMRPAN

Source: ChEMBL document CHEMBL3988442, “University of Dundee, Small-Polar-MMV Screening Library” (2021).

The filed quantity is “Percent Effect” (%).
The controls that fix the scale are not given in the record; negative values are as filed.
The compounds are a random part of those screened.

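Enzyme assay of the cytosolic lysyl-tRNA synthetase in 384-well plates, read by luminescence. Target: Lysine-tRNA ligase, Plasmodium falciparum 3D7 (UniProt Q8IDJ8). Tested at 30 µM. Higher reads as stronger inhibition, judged from the few compounds that gave an IC50. About 69,000 compounds were tested under these conditions; 0.071% (about 49) showed 50% or more at least once.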

* Cc1cnn(CC2CN(Cc3nnc(-c4occc4C)o3)CCO2)c1 (stereo not given) : 3.363%
* CN(C)c1nccc(CNS(=O)(=O)c2cc(Cl)cc(Cl)c2)n1 : 1.402%
* Cc1nnc(CNC(=O)[C@@H]2C[C@H](NC(=O)C(C)(C)C)CN2C)[nH]1 : 6.057%
* Cc1cc(C)c2c(NCc3nncn3C3CCCCC3)ncnc2n1 : 8.974%
* CC(Nc1ccc(CCN2CCOCC2)cc1)C(=O)N(C)CCC#N (stereo not given) : 4.146%
* CCn1ncc(CN2C[C@@H]3CCCN3C[C@@H]2CCSC)c1C : 0.9356%
* CN(C)c1ccc(C(=O)N2CCC(c3n[nH]c(C4CC4)n3)CC2)cc1 : 1.863%
* CCC(CC)C(=O)Nc1ccc2oc(=O)n(CCN(C)C)c2c1 : 5.238%
* N[C@@H](Cc1c[nH]cn1)C(=O)N1CCC(Oc2ccc(F)cc2)CC1 : 3.804%
* Cc1ccc(-c2nc(CC(=O)NCC3CCOC3)cs2)o1 (stereo not given) : 6.435%
* CC(C)(O)CN1CCN(C(=O)c2cccn2Cc2ccncc2)CC1 : 5.663%
* COCc1noc(CCC(=O)c2ccc3c(c2)OCCO3)n1 : 3.91%
* COC[C@]1(O)CCN(C2CCN(c3ccc(OC)cc3)CC2)CC1(C)C : -0.6965%
* CCc1noc(C)c1C(=O)NCc1ccccn1 : 4.863%
* Cn1cc(Br)c(=O)c(NS(=O)(=O)c2cc(F)ccc2Cl)c1 : 2.197%
* CCOCC(C)(C)NC(=O)Nc1cc(F)ccc1OC : 2.771%
* N#Cc1cn(C2CC2)c(=O)n(CC(O)c2ccccc2C(F)(F)F)c1=O (stereo not given) : 1.641%
* CC(=O)Nc1ncc(S(=O)(=O)N2CCCC(C)C2)s1 (stereo not given) : -1.491%
* COCC(=O)Nc1cc(Br)cnc1OCC(F)(F)F : 4.938%
* CC(C)Oc1ccccc1NC(=O)N1CCC(n2cncn2)CC1 : -0.5097%
* Cn1ccnc1CN1CCN(Cc2cc(-c3ccccc3)no2)CC1 : 4.605%
* Cc1nnc(N2CCc3cncnc3C2)c(C#N)c1C : 26.4%
* CC1CCCN1C1CCN(C(=O)c2cccc(-c3ccoc3)c2)CC1 (stereo not given) : -4.936%
* CCN(Cc1cnn(C)c1)C[C@H]1CC[C@@H](Cc2ccc(C)nc2)O1 : -0.6751%
* CC(O)(CN1CCC2(CC1)OCCO2)c1cccc(C(F)(F)F)c1 (stereo not given) : 4.981%
* CCOc1ccc(OCc2nccc(-c3cc(C(=O)O)ccn3)n2)cc1 : 2.171%
* CCN(CCc1ccccc1)Cn1nc(C)c2c(C)onc2c1=O : 1.084%
* CS(=O)(=O)NCc1nnc2n1CCN(Cc1cccs1)C2 : 1.036%
* CC(C)N1CC[C@@H]2OC[C@H](C(=O)Nc3cccnc3)C[C@@H]2C1 : 12.71%
* CSCC[C@H](N)c1nnc(SCc2cc(C)ccc2C)o1 : 5.479%
* Cc1cc(CNC2(CO)CCOCC2)ccc1Br : -1.548%
* O=C(NC1CC1)c1nc(Cn2c(C(F)F)nc3ccccc32)no1 : -1.22%
* Cc1cc(C)c(C(=O)N2CCOCC2c2c(C)nn(C)c2C)o1 (stereo not given) : 3.859%
* Cc1noc(C)c1-c1cccc(CC2CCN(C(=O)c3cc[nH]n3)C2)n1 (stereo not given) : 5.779%
* COCCN1CCN(Cc2ccc(Cl)cc2)[C@H]2CS(=O)(=O)C[C@H]21 : 8.081%
* CCc1oc(C(=O)NCCNS(C)(=O)=O)cc1CN1CCCC1 : -5.758%
* CN(CC(=O)NC(Cc1ccccc1)C1CCCC1)S(C)(=O)=O (stereo not given) : 5.836%
* NCCn1cc(C(=O)N2CCCCCC2c2ccco2)nn1 (stereo not given) : -0.3201%
* COc1cc(N2CCC3(CC2)CCN(c2cccnc2)C3=O)ncn1 : 4.743%
* O=C1CCC2(CCCN(C(=O)c3cccs3)C2)N1 (stereo not given) : 1.147%
* Cc1cc(C)n(CCCNC(=O)C(C)NC(=O)c2ccccc2Cl)n1 (stereo not given) : 9.483%
* CC(=O)NCCCNC(=O)N(C)C(C)Cc1ccc(Cl)cc1 (stereo not given) : 5.989%
* CCc1nc(C2CCCN2C(=O)Cc2cccs2)no1 (stereo not given) : -1.573%
* Cc1n[nH]c(C2CN(CCCOc3ccc(F)cc3)CCO2)n1 (stereo not given) : 1.316%
* CCNc1ncc(C(=O)NC2CCSC2)cn1 (stereo not given) : 1.157%
* Cc1cc(N2CCOC(c3ccccn3)C2)nc(N)n1 (stereo not given) : -0.4819%
* O[C@H]1CCN(CC2CC2)[C@H]1Cc1ccncc1 : 2.489%
* CCOCc1ncn2c1CN(C(=O)Nc1cccc(F)c1)CC2 : 5.148%
* Cc1n[nH]c(C2CN(C(=O)c3ccc4c(c3)COC4)CCO2)n1 (stereo not given) : 3.837%
* Cc1ccc([C@@H]2CN(C(=O)c3ccsc3)C[C@H]2NC(=O)C2CC2)cc1 : 8.081%
* CCC(C)Oc1cc(C(=O)N(c2cccnc2)C(C)C)ccn1 (stereo not given) : 5.884%

Some entries from above, unchanged:

- Cc1cc(N2CCOC(c3ccccn3)C2)nc(N)n1 (stereo not given) : -0.4819%
- CN(C)c1ccc(C(=O)N2CCC(c3n[nH]c(C4CC4)n3)CC2)cc1 : 1.863%
- CC(C)N1CC[C@@H]2OC[C@H](C(=O)Nc3cccnc3)C[C@@H]2C1 : 12.71%
- Cc1nnc(CNC(=O)[C@@H]2C[C@H](NC(=O)C(C)(C)C)CN2C)[nH]1 : 6.057%
- Cc1cc(CNC2(CO)CCOCC2)ccc1Br : -1.548%
- O=C1CCC2(CCCN(C(=O)c3cccs3)C2)N1 (stereo not given) : 1.147%